Assay results published in article PMC4479986, “An Alternative Phosphorylation Switch in Integrin β2 (CD18) Tail for Dok1 Binding” (Scientific Reports, 2015).
These are yes or no findings as the source states them, for the method shown. Binding seen in cells or lysates may run through a third protein. Some entries that bind do so weakly or less than the wild type. Where a sequence is shown, tags or fusion partners need not be part of it.

Amino acid sequences for entries named in this document (tags omitted). A change or cut given only in a name is not applied to a line headed by its entry. Chains listed by the source or under a name are the forms on record and can include a tag or linker. Residues count along the entry.
Integrin β2-YFP wild-type (YFP fused to the C-terminal of the β2 cytoplasmic tail) (P05107, residues 23-769): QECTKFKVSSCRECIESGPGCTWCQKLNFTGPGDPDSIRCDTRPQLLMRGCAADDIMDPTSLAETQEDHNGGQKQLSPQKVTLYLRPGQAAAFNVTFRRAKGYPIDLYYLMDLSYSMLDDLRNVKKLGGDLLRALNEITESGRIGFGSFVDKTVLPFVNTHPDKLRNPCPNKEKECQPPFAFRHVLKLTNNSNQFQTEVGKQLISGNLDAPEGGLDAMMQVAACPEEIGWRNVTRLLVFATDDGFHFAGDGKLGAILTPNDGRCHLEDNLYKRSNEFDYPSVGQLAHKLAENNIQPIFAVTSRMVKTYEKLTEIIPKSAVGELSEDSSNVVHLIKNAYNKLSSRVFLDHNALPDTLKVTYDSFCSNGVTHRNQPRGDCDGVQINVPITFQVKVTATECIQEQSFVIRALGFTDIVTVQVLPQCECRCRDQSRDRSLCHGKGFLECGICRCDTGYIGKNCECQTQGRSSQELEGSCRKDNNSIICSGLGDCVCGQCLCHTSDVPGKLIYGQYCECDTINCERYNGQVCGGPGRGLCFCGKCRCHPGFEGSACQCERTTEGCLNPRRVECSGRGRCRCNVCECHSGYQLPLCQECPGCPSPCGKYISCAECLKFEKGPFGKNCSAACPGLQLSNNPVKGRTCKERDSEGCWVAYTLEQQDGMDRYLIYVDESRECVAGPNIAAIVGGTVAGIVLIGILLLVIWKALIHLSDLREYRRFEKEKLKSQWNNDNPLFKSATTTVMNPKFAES
Integrin β2-YFP S745E/S756E (P05107, form named): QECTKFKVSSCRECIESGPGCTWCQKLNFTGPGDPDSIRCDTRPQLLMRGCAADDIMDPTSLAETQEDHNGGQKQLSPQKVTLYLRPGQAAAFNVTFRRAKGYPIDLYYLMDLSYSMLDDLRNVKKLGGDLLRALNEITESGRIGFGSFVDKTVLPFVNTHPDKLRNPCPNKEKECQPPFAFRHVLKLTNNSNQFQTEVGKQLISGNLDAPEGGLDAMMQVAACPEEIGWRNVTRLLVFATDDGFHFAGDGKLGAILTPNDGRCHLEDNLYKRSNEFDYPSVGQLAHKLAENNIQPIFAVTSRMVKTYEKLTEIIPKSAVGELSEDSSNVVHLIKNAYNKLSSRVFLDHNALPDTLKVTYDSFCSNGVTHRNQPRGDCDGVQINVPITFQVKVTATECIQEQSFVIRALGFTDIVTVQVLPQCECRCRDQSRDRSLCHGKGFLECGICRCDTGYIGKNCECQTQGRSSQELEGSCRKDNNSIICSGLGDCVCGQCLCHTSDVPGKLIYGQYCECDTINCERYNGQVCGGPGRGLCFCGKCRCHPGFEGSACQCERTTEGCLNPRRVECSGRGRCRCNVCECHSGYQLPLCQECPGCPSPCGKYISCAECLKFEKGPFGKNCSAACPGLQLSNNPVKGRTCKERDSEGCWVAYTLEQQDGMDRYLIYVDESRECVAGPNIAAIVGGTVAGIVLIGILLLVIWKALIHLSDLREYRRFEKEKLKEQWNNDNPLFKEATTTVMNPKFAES

How the values were obtained:
[1] = biological target: Integrin β2-YFP wild-type (YFP fused to the C-terminal of the β2 cytoplasmic tail) (human) (UniProt P05107); experiment: FRET or BRET; YFP-photobleach FRET in K562 cells transfected with integrin αL, β2-YFP (WT or mutant) and Dok1-CFP; also stable Dok1-CFP K562 line transfected with αL, β2-YFP and CCR5, untreated
[2] = biological target: Integrin β2-YFP S745E/S756E (human) (UniProt P05107); experiment: as above

binding [1]: binds
binding [2]: binds weakly
B1: Dok1-CFP (CFP fused to the C-terminus of Dok1) (protein, UniProt Q99704 1-481)
chain: MDGAVMEGPLFLQSQRFGTKRWRKTWAVLYPASPHGVARLEFFDHKGSSSGGGRGSSRRLDCKVIRLAECVSVAPVTVETPPEPGATAFRLDTAQRSHLLAADAPSSAAWVQTLCRNAFPKGSWTLAPTDNPPKLSALEMLENSLYSPTWEGSQFWVTVQRTEAAERCGLHGSYVLRVEAERLTLLTVGAQSQILEPLLSWPYTLLRRYGRDKVMFSFEAGRRCPSGPGTFTFQTAQGNDIFQAVETAIHRQKAQGKAGQGHDVLRADSHEGEVAEGKLPSPPGPQELLDSPPALYAEPLDSLRIAPCPSQDSLYSDPLDSTSAQAGEGVQRKKPLYWDLYEHAQQQLLKAKLTDPKEDPIYDEPEGLAPVPPQGLYDLPREPKDAWWCQARVKEEGYELPYNPATDDYAVPPPRSTKPLLAPKPQGPAFPEPGTATGSGIKSHNSALYSQVQKSGASGSWDCGLSRVGTDKTGVKSEGST
